Laboratory results: US11567075B2, “Immunochromatographic device, immunochromatographic kit and immunochromatographic detection method” (TANAKA KIKINZOKU KOGYO K.K., priority 2018, dated 2023)
For at least one compound, name, drawing or mass did not settle the structure.

Test: Sublimation of the acid under reduced pressure (weight change)
Format: physicochemical
Conditions: 1 g acid, 12 hours

O=c1oc(=O)c2cc3c(=O)oc(=O)c3cc12 [Example 2, pyromellitic anhydride]
Sublimation at 25° C. at 20 Pa: A (“A” indicates that the acid did not sublimate (increase or the decrease in the weight was within 5%))

O=C1OC(=O)C2CC3C(=O)OC(=O)C3CC12 (centres unmarked) [Example 7, 1,2,4,5-cyclohexanetetracarboxylic dianhydride]
Sublimation at 25° C. at 20 Pa: A (“A” indicates that the acid did not sublimate (increase or the decrease in the weight was within 5%))
